From publication PMC7125190, “Native/citrullinated LL37-specific T-cells help autoantibody production in Systemic Lupus Erythematosus” (Scientific Reports, 2020)

Tested on: CD3+CD4+ T-cells
Test: T-cell proliferation assay (BrdU incorporation of PBMC)
Assay type: cell-based, human
Conditions: SLE
Experimental: PBMCs were purified, from EDTA-treated blood, on Ficoll-Hypaque (Pharmacia Fine Chemicals, Uppsala, Sweden) were incubated (10^5 cells/well) in 96-well-flat-bottom-microplates (BD) in T cell- […]
penicillin, and 100 μg/mL streptomycin), with/without peptides. We performed assays on fresh cells, within 1-to-3 hours from collection, or on PBMCs frozen in 90% FCS-10%DMSO, whose viability we assessed by Trypan blue exclusion, at inverted microscope.
At day3 and 5, BrdU was added (1 μg/mL). BrdU-incorporation was detected by APC-labeled anti-BrdU antibody (BD Pharmingen), after surface staining by flow cytometry. Internal control for T-cell viability and proliferation was PHA treatment (2 μg/mL). SI for proliferation was calculated by dividing percent of BrdU-staining in the presence of each peptide used to stimulate cells by percent of BrdU-staining in the absence of peptide stimulation. SI for proliferation was considered positive when>3. This cut-off was obtained by calculating the mean+2DS [1.5 + 2 (0.6)] (of the stimulation indexes calculated as above) of the proliferation of HD.
Basal % of proliferation was set using, as reference, an isotype matched antibody staining (APC- […]
Assays were repeated twice with each patient. In rare cases in which background proliferation exceed antigen-specific proliferation the assay was repeated three times. […]

“LLGDFFR(cit)KSKEKIGKEFKR(cit)IVQR(cit)IKDFLR(cit)NLVPR(cit)TES [cit-LL37, citrullinated LL37 (citrullinated at all five arginin positions)]” was tested. Which “T-cell response higher with anti-DNA antibody positivity” value did it give?
The value was “but not to cit-LL37”.
